Assay [1] has as its target T1, His-tagged P3028 (human).
T1 sequence (peptide): VFDEFKPLVEEPQNLIK
Kind of assay: PEPSCAN ELISA (rampo).

Amino acid sequences for entries named in this document (tags omitted). A change or cut given only in a name is not applied to a line headed by its entry.
UniProt P20701: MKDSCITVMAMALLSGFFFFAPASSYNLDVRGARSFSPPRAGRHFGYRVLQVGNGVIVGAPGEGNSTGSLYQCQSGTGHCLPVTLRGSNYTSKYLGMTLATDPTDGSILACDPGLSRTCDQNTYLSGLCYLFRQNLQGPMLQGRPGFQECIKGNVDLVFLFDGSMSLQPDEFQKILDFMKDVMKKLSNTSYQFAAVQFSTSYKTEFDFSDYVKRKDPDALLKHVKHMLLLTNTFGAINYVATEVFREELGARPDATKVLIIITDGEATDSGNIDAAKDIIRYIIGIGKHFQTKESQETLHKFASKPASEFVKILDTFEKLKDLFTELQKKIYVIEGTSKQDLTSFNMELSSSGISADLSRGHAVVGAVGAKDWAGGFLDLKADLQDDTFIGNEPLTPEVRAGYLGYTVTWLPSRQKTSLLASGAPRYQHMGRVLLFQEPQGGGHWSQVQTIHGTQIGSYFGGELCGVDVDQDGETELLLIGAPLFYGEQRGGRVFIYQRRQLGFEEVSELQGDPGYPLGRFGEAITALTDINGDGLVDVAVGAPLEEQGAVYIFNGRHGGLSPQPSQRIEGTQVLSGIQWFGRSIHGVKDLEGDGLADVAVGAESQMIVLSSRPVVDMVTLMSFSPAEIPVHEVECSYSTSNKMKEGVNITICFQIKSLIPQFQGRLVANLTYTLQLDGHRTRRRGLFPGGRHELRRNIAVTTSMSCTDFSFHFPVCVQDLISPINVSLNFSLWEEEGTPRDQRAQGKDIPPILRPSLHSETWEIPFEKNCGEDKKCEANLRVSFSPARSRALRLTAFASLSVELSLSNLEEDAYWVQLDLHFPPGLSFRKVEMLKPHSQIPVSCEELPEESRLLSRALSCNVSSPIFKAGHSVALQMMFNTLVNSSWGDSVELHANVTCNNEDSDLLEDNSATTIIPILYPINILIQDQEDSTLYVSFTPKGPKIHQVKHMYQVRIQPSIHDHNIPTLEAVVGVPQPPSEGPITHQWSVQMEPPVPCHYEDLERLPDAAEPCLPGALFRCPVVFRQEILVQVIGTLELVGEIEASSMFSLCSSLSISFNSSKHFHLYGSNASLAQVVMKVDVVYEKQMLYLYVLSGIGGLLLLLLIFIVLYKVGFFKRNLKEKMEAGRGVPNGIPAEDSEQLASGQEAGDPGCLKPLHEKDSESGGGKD

For assay [2], the target named is LFA-1 (human) (UniProt P20701). Kind of assay: immunocytochemical staining of LFA-1 on PBMCs.
Assay [3] addresses T1, His-tagged P3028 (human). Kind of assay: PEPSCAN ELISA, peptide 0.5 mg/mL in solution as competitor. A general note: ELISA stands for enzyme-linked immunosorbent assay.

Results are given in words; binding and its absence hold for the method and conditions named. Some results given as binding are weak or reduced against the parent protein; the word gives no strength. For part of these data: Sequences can lack the tags named with a protein. No end group written: not given here.

B1: SEQ ID NO 99 (peptide)
peptide: KKLDTFFVKLGLFTER
For the molecule B1, the binding entry in assay [1] is “binds”.

B2: P3028 (peptide)
peptide: VFDEFKPLVEEPQNLIK
On to B2, for which the binding entry in assay [2] is on record as “binds”.

B3: SCF28 (peptide)
peptide: KKLDTFFKKLSLFTE
For B3, in assay [3], the binding entry was “binds”.

The record behind these values is patent publication US20170298096A1 (CANIMGUIDE THERAPEUTICS, published 2017).
